Publication PMC9749938, “Alkyltriphenylphosphonium turns naphthoquinoneimidazoles into potent membrane depolarizers against mycobacteria” (RSC Medicinal Chemistry, 2022)

test system: Vero E6 cells; assay: Cytotoxicity on Vero E6 cells; assay type: cell-based, African green monkey; conditions: selectivity index, should be ≥10

Point of comparison: `Cc1nc2ccccc2n1CCCCCCC[P+](c1ccccc1)(c1ccccc1)c1ccccc1.[I-]` [Compound 10], “SI (IC50 Vero/MIC50 M. bovis BCG)” value 22.7. Against it:
- CCCCCC[P+](CCCCCC)(CCCCCC)CCCCCCCn1c(C)nc2c1C(=O)c1ccccc1C2=O.[I-] [Compound 19] — lower, 7.5
- Cc1cc(=O)n(CCCCCCCCCCC[P+](c2ccccc2)(c2ccccc2)c2ccccc2)c2c1C(=O)c1ccccc1C2=O.[I-] [Compound 13] — lower, 0.6
- Cc1nc2c(n1CCCCCCC[P+](c1ccccc1)(c1ccccc1)c1ccccc1)C(=O)c1ccccc1C2=O.[I-] [Compound 5] — higher, 40.3
- Cc1nc2c(n1CCCCCCCCCCC[P+](c1ccccc1)(c1ccccc1)c1ccccc1)C(=O)c1cccnc1C2=O.[I-] [Compound 15] — lower, 9.0
- Cc1cc(=O)n(CCCCCCC[P+](c2ccccc2)(c2ccccc2)c2ccccc2)c2c1C(=O)c1ccccc1C2=O.[I-] [Compound 12] — lower, 5.9
- Cc1nc2c(n1CCCCCCC[P+](C1CCCCC1)(C1CCCCC1)C1CCCCC1)C(=O)c1ccccc1C2=O.[I-] [Compound 17] — lower, 18.8
- O=C1c2ccccc2C(=O)c2c1nc(C(F)(F)F)n2CCCCCCCCCCC[P+](c1ccccc1)(c1ccccc1)c1ccccc1.[I-] [Compound 14] — lower, 3.12
- Cc1nc2ccccc2n1CCCCCCCCCCC[P+](c1ccccc1)(c1ccccc1)c1ccccc1.[I-] [Compound 11] — lower, 12.78

For `Cc1nc2c(n1CCC[P+](c1ccccc1)(c1ccccc1)c1ccccc1)C(=O)c1ccccc1C2=O.[I-]` [Compound 3], the “SI (IC50 Vero/MIC50 M. bovis BCG)” value was greater than 100.
With `Cc1nc2c(n1CCCCC[P+](c1ccccc1)(c1ccccc1)c1ccccc1)C(=O)c1ccccc1C2=O.[I-]` [Compound 4] the “SI (IC50 Vero/MIC50 M. bovis BCG)” value was greater than 166.67.
